# Values quoted from earlier work, collected in patent US6982157B1, “Drug combinations comprising (E)-7-[4-(4-fluorophenyl)-6-isopropyl-2-[methylsulfonyl)amino] pyrimidin-5-yl] (3r,5s) -3,5-dihydroxyhept-6-enoic acid and an inhibitor, inducer or substrate of p450 isoenzyme 3A4” (AstraZeneca AB, priority 1999, dated 2006).
# System: cytochrome P450 enzymes, in particular 3A4
# Conditions: cited from earlier work
smiles,measurement,value
CC(C)c1c(C(=O)Nc2ccccc2)c(-c2ccccc2)c(-c2ccc(F)cc2)n1CC[C@@H](O)C[C@@H](O)CC(=O)O [atorvastatin],"metabolism by cytochrome P450 enzymes, in particular 3A4",is metabolised
